According to the supplement of paper PMC4256282, “Profound Activity of the Anti-cancer Drug Bortezomib against Echinococcus multilocularis Metacestodes Identifies the Proteasome as a Novel Drug Target for Cestodes” (PLoS Neglected Tropical Diseases, 2014):
Structures can show the parent of a compound that is named as a salt. The list shows a part of the results. Single values are uncertain, as repeats are few or missing.

What follows are compounds tested on Echinococcus multilocularis metacestodes (assay: vesicle damage (PGI release) relative to positive control DB1127 at 20 µM, DMSO subtracted; higher = more parasite damage). Conditions: treatment time 5 days.
For `CCOC(=O)[C@H](CCc1ccccc1)N[C@H]1CCc2ccccc2N(CC(=O)O)C1=O` [Benazepril hydrochloride], the vesicle damage was 1.03%.
`COC(=O)N[C@H](C(=O)N[C@@H](Cc1ccccc1)[C@@H](O)CN(Cc1ccc(-c2ccccn2)cc1)NC(=O)[C@@H](NC(=O)OC)C(C)(C)C)C(C)(C)C` [Atazanavir sulfate] was tested, and the vesicle damage was 2.79%.
For `CC(C)n1c(/C=C/C(O)CC(O)CC(=O)O)c(-c2ccc(F)cc2)c2ccccc21` (stereo not drawn) [Fluvastatin Sodium], the vesicle damage was 0.968%.
For `C[C@H](CCC(=O)O)[C@H]1CC[C@H]2[C@@H]3[C@H](O)C[C@@H]4C[C@H](O)CC[C@]4(C)[C@H]3CC[C@]12C` [Chenodeoxycholic acid], the vesicle damage was -13.1%.
For `CC1=C(/C=C/C(C)=C/C=C/C(C)=C\C(=O)O)C(C)(C)CCC1` [Isotretinoin], the vesicle damage was -3.63%.
For `CS(=O)(=O)CCNCc1ccc(-c2ccc3ncnc(Nc4ccc(OCc5cccc(F)c5)c(Cl)c4)c3c2)o1` [Lapatinib Ditosylate], the vesicle damage was 5.98%.
In the case of `O=C1CCC(N2C(=O)c3ccccc3C2=O)C(=O)N1` (stereo not drawn) [Thalidomide], the vesicle damage is reported as -0.494%.
`C#Cc1cccc(Nc2ncnc3cc(OCCOC)c(OCCO)cc23)c1` gave a vesicle damage of 2.69%.
`CN(C)c1nc(N(C)C)nc(N(C)C)n1` [Altretamine] showed a vesicle damage of 0.123%.
`CO[C@@H]1[C@@H](OC(N)=O)[C@@H](O)[C@H](Oc2ccc3c(O)c(NC(=O)c4ccc(O)c(CC=C(C)C)c4)c(=O)oc3c2C)OC1(C)C` [Novobiocin sodium] was tested, and the vesicle damage was 4.42%.
Work on `O=C(O)C1(C(=O)O)CCC1.[NH2-].[NH2-].[Pt+2]` [Carboplatin] yielded a vesicle damage of -0.898%.
`CC(C)Cc1ccc(C(C)C(=O)O)cc1` (stereo not drawn) [Ibuprofen Lysine] showed a vesicle damage of -0.237%.
`Oc1c(Cl)cc(Cl)c2cccnc12` [Chloroxine] was tested, and the vesicle damage was -7.09%.
Compound `CCc1cccc2c3c([nH]c12)C(CC)(CC(=O)O)OCC3` (stereo not drawn) [Etodolac] has a vesicle damage of 0.409%.
`CN(C)/N=N/c1[nH]cnc1C(N)=O` [Dacarbazine] gave a vesicle damage of 0.485%.
With `C[C@]12C=CC(=O)C=C1CC[C@@H]1[C@@H]2[C@@H](O)C[C@@]2(C)[C@H]1CC[C@]2(O)C(=O)CO` [Prednisolone] the vesicle damage was -13.3%.
With `COc1cccc2c1C(=O)c1c(O)c3c(c(O)c1C2=O)C[C@@](O)(C(=O)CO)C[C@@H]3O[C@H]1C[C@H](N)[C@@H](O)[C@H](C)O1` [Epirubicin Hydrochloride] the vesicle damage was 3.67%.
For `Cc1cnc(C(=O)NCCc2ccc(S(=O)(=O)NC(=O)NC3CCCCC3)cc2)cn1` [Glipizide], the vesicle damage was -13.8%.
`CC(C)(C)NCC(O)c1ccc(O)c(CO)c1` (stereo not drawn) [Salbutamol sulfate] gave a vesicle damage of 1.85%.
In the case of `c1ccc([C@H]2CN3CCSC3=N2)cc1` [Levamisole Hydrochloride], the vesicle damage is reported as -10.5%.
`CCC(C)n1ncn(-c2ccc(N3CCN(c4ccc(OCC5COC(Cn6cncn6)(c6ccc(Cl)cc6Cl)O5)cc4)CC3)cc2)c1=O` (stereo not drawn) [Itraconazole] was tested, and the vesicle damage was 6.17%.
`NC(=O)CC[C@H](N)C(=O)O` [L-Glutamine] was tested, and the vesicle damage was -11.6%.
Compound `Cc1cn([C@@H]2C[C@@H](O)[C@H](CO)O2)c(=O)[nH]c1=O` [Telbivudine] has a vesicle damage of -1.08%.
For `Cn1c(=O)c2c(ncn2CC(O)CO)n(C)c1=O` (stereo not drawn) [Dyphylline], the vesicle damage was -2.04%.
`Clc1ccc(COC(Cn2ccnc2)c2ccc(Cl)cc2Cl)c(Cl)c1` (stereo not drawn) [Miconazole] showed a vesicle damage of -10.1%.
Compound `Cc1cccc(C)c1OCC(=O)N[C@@H](Cc1ccccc1)[C@@H](O)C[C@H](Cc1ccccc1)NC(=O)[C@H](C(C)C)N1CCCNC1=O` [Lopinavir] has a vesicle damage of 16.6%.
Work on `COc1cc2c(cc1O)CC[C@@H]1[C@@H]2CC[C@]2(C)[C@@H](O)CC[C@@H]12` [2-Methoxyestradiol] yielded a vesicle damage of -0.722%.
With `C[N+]1(C)[C@@H]2C[C@@H](OC(=O)C(O)(c3cccs3)c3cccs3)C[C@H]1[C@@H]1O[C@@H]12` [Tiotropium Bromide] the vesicle damage was -0.136%.
`NC(=O)Cc1cccc(C(=O)c2ccccc2)c1N` [Nepafenac] showed a vesicle damage of -1.69%.
Compound `CCCCCOC(=O)Nc1nc(=O)n([C@@H]2O[C@H](C)[C@@H](O)[C@H]2O)cc1F` [Capecitabine] has a vesicle damage of 0.0095%.
With `OCCOCCN1CCN(C2=Nc3ccccc3Sc3ccccc32)CC1` [Quetiapine fumarate] the vesicle damage was -8.85%.
`CNC(=O)CN(CCN(CCN(CC(=O)[O-])CC(=O)NC)CC(=O)[O-])CC(=O)[O-].[Gd+3]` [Gadodiamide] showed a vesicle damage of -13%.
Compound `C[C@]12C=CC(=O)C=C1CC[C@H]1[C@@H]3C[C@@H](O)[C@](O)(C(=O)CO)[C@@]3(C)C[C@H](O)[C@@]12F` [Triamcinolone] has a vesicle damage of -9.45%.
`O=C(O)Cc1ccccc1Nc1c(Cl)cccc1Cl` [Diclofenac sodium] showed a vesicle damage of 6.19%.
`CCCC(CCC)C(=O)O` [Divalproex sodium] showed a vesicle damage of -1.42%.
With `CCN(CC)CCOc1ccc(C(=C(Cl)c2ccccc2)c2ccccc2)cc1` [Clomifene citrate] the vesicle damage was -4.57%.
Compound `CN(C)CCOC(c1ccccc1)c1ccccc1` [Diphenhydramine hcl] has a vesicle damage of -14.9%.
`C[C@]12CCC(=O)C=C1[C@@H]1C[C@@H]1[C@H]1[C@@H]3[C@@H]4C[C@@H]4[C@@]4(CCC(=O)O4)[C@@]3(C)CC[C@@H]12` [Drospirenone] gave a vesicle damage of 16.8%.
